{"source": "patent US8623387B2", "about": "“External preparation composition comprising fatty acid-based ionic liquid as active ingredient” (Medrx Co., Ltd., priority 2007, dated 2014)", "assay": "IR absorption spectrum, confirmation of salt formation (carboxylic acid vs carboxyl ion absorption)", "set-up": "key to Salt formation by IR absorption, equimolar reaction with Octanoic acid: CO2H→CO2^− represents that the IR absorption of the carboxylic acid disappeared and carboxylic acid ion absorption was formed.; CO2H + CO2^− represents that absorptions of carboxylic acid and carboxylic acid ions coexist. In this case, the form of an equilibrium mixture in view of IR spectrum is represented"}
{"smiles": "CC(O)CNCC(C)O", "note": "(centres unmarked) [Diisopropanolamine]", "values": [{"measurement": "Salt formation by IR absorption, equimolar reaction with Capric acid", "setting": "equimolar amine + capric acid, 'Same as the left' = same result as the octanoic acid column", "result": "Same as"}, {"measurement": "Salt formation by IR absorption, equimolar reaction with Isostearic acid", "setting": "equimolar amine + isostearic acid, 'Same as the left' = same result as the octanoic acid column", "result": "Same as the"}, {"measurement": "Salt formation by IR absorption, equimolar reaction with Lauric acid", "setting": "equimolar amine + lauric acid, 'Same as the left' = same result as the octanoic acid column", "result": "Same as"}, {"measurement": "Salt formation by IR absorption, equimolar reaction with Octanoic acid", "setting": "equimolar amine + octanoic acid, 80° C., Nujol, NaCl plates, #1 Salt formation, #2 Equilibrium mixture", "result": "CO2H→CO2^− #1"}, {"measurement": "position of IR absorption, Characteristic absorption of —COOH of isostearic acid", "setting": "isostearic acid before salt formation, Nujol, rock salt plates", "result": 1710, "unit": "cm⁻¹"}]}
